# Record: PubChem BioAssay AID1508597 (Cure First, 2020)
# Aim: 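Survival screen with siRNA in ovarian cancer cells derived from patients, with or without rucaparib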 (primary screen)
# System: human ovarian carcinoma lines grown from tumours: OCI-P5x (papillary serous) and OCI-C5x (clear cell)
# Reagents: siRNA pool against human genes, 1.25 pmol siRNA per well
# Timing: 72 h or 96 h, depending on the cell culture
# Conditions: rucaparib 20 µM (about IC30) or vehicle, present until read-out
# Rucaparib or vehicle: Vehicle
# Cell line: OCI-C5x (clear cell)
# Detection: 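ATP luminescence measured at 72 or 96 h according to the culture, then normalised and expressed as percent viability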
# Scale: viability, normalised: higher = more viable cells remaining
# Rule for the call: 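a well counts as a hit if its normalised viability is under 80 percent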
# Calls: active = viability under 80%; inactive = viability 80% or more
# Shown is a random part of the about 2,100 reagents, in one setting of the screen. 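Calls flag viability under 80% in either arm, not effects specific to rucaparib; the reference for percent is not stated.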 Some reagents were tested in more than one well and are listed for each. No sequences are given here. Not given: the 100% reference.
Gene,technical replicate,"viability, normalised (%)",activity call
CNP,1,59,active
CNP,2,55.9,active
CNP,3,51.6,active
MLH1,1,47,active
MLH1,2,55.6,active
MLH1,3,61.7,active
PDE6H,1,65.9,active
PDE6H,2,62.4,active
PDE6H,3,70.8,active
STK31,1,75.2,active
STK31,1,63.2,active
STK31,2,56.2,active
STK31,2,73.5,active
STK31,3,50.1,active
STK31,3,89.6,inactive
MUC16,1,74.7,active
MUC16,2,75.4,active
MUC16,3,74.8,active
TSPYL1,1,61.3,active
TSPYL1,2,47.1,active
TSPYL1,3,50.7,active
TERF2IP,1,56.7,active
TERF2IP,2,70.1,active
TERF2IP,3,63.7,active
TSSK4,1,56.4,active
TSSK4,2,45.3,active
TSSK4,3,39.4,active
AK3,1,57,active
AK3,2,43.3,active
AK3,3,47.5,active
TRIM16,1,70.4,active
TRIM16,2,66.3,active
TRIM16,3,65.7,active
HMGB1,1,35.6,active
HMGB1,2,49,active
HMGB1,3,66.1,active
JMJD4,1,65.4,active
JMJD4,2,65.1,active
JMJD4,3,71.1,active
